Test results as given in PubChem BioAssay AID330 (DTP/NCI, 2004).
The list does not hold the whole screen: it gathers tests that were run many times, whatever their T/C, doses with no T/C, and many T/C values between a quarter and a half above the control. Further doses and runs are listed elsewhere. T/C gives the treated animals as a percentage of the vehicle group. Some doses have a count of surviving animals in place of a T/C: the source holds a T/C of zero for them, seemingly a mark for toxic or unscored doses. Some doses without a T/C left all or most animals alive at the check, yet need not have been tolerated: survival well below the control is almost never listed, so the zero probably covers shortened survival too. Counts of survivors are from the toxicity check (mostly the fifth day) where no day follows; animals may have died later. Schedules are NCI's codes, read here as Q, the interval in days (D) or hours (H), X, the number of doses. For survival time, this PubChem deposit counts one and a half times the control or more as active, and values a quarter to a half above the control carry no call in these data; other NCI protocols may use other cut-offs.

System: P388 leukemia ip, CD2F1 mice, survival T/C
Experiment: NCI In Vivo Anticancer Drug Screen. Data for tumor model P388 Leukemia (intraperitoneal) in CD2F1 (CDF1) mice
Details: T/C endpoint: median survival time, higher T/C = longer survival
[1] = dose: 50.0 mg/kg/injection, schedule: Q01DX009 (ip), vehicle: saline
[2] = dose: 200.0 mg/kg/injection, schedule: Q01DX005 (ip), vehicle: Klucel (hydroxypropylcellulose) (HPC)
[3] = dose: 120.0 mg/kg/injection, schedule: Q01DX005 (ip), vehicle: Klucel (hydroxypropylcellulose) (HPC)
[4] = dose: 100.0 mg/kg/injection, schedule: Q01DX009 (ip), vehicle: saline
[5] = dose: 200.0 mg/kg/injection, schedule: Q04DX003 (ip), vehicle: saline with Tween-80
[6] = dose: 400.0 mg/kg/injection, schedule: Q04DX003 (ip), vehicle: saline with Tween-80
[7] = dose: 240.0 mg/kg/injection, schedule: Q01DX005 (ip), vehicle: saline
[8] = dose: 25.0 mg/kg/injection, schedule: Q01DX005 (ip), vehicle: saline with Tween-80
[9] = dose: 50.0 mg/kg/injection, schedule: Q01DX005 (ip), vehicle: saline with Tween-80
[10] = dose: 100.0 mg/kg/injection, schedule: Q01DX005 (ip), vehicle: saline with Tween-80
[11] = dose: 200.0 mg/kg/injection, schedule: Q01DX005 (ip), vehicle: saline with Tween-80

With `COC1C(OC(=O)/C=C/C=C/C=C/C=C/C(=O)O)CCC2(CO2)C1C1(C)OC1CC=C(C)C` (stereo not drawn) the T/C (dose: 33.0 mg/kg/injection, schedule: Q01DX009 (ip), vehicle: saline) was 125 % of control, the T/C [1] was 127 % of control and the T/C (dose: 75.0 mg/kg/injection, schedule: Q01DX009 (ip), vehicle: saline) was 136 % of control. For the same compound, the T/C (dose: 266.0 mg/kg/injection, schedule: Q04DX003 (ip), vehicle: saline) was 140 % of control, the survivor count (dose: 400.0 mg/kg/injection, schedule: Q04DX003 (ip), vehicle: saline) was 4 of 6 and the survivor count (dose: 600.0 mg/kg/injection, schedule: Q04DX003 (ip), vehicle: saline) was 1 of 6.
For `O=C(CCCc1ccc(N2C(=O)C=CC2=O)cc1)ON1C(=O)CCC1=O`, the survivor count (dose: 50.0 mg/kg/injection, schedule: Q04DX002 (ip), vehicle: saline with Tween-80) was 2 of 5, the survivor count (dose: 100.0 mg/kg/injection, schedule: Q04DX002 (ip), vehicle: saline with Tween-80) was 0 of 5 and the survivor count (dose: 200.0 mg/kg/injection, schedule: Q04DX002 (ip), vehicle: saline with Tween-80) was 0 of 5. The survivor count (dose: 400.0 mg/kg/injection, schedule: Q04DX002 (ip), vehicle: saline with Tween-80) was 0 of 5.
In the case of `O=c1[nH]nc(SCc2ccc(Cl)cc2Cl)c(=O)[nH]1`, the survivor count (dose: 25.0 mg/kg/injection, schedule: Q01DX005 (ip), vehicle: Klucel (hydroxypropylcellulose) (HPC)) is reported as 6 of 6, the survivor count (dose: 50.0 mg/kg/injection, schedule: Q01DX005 (ip), vehicle: Klucel (hydroxypropylcellulose) (HPC)) is reported as 6 of 6 and the survivor count (dose: 100.0 mg/kg/injection, schedule: Q01DX005 (ip), vehicle: Klucel (hydroxypropylcellulose) (HPC)) is reported as 6 of 6. For the same compound, the survivor count [2] was 6 of 6.
With `Cc1cc2c(=O)cc(-c3ccccc3Cl)oc2c(C#N)c1C` the survivor count (dose: 15.0 mg/kg/injection, schedule: Q01DX005 (ip), vehicle: Klucel (hydroxypropylcellulose) (HPC)) was 6 of 6, the survivor count (dose: 30.0 mg/kg/injection, schedule: Q01DX005 (ip), vehicle: Klucel (hydroxypropylcellulose) (HPC)) was 6 of 6 and the survivor count (dose: 60.0 mg/kg/injection, schedule: Q01DX005 (ip), vehicle: Klucel (hydroxypropylcellulose) (HPC)) was 6 of 6. The survivor count [3] was 5 of 6.
For `O=S(=O)(c1ccc(N=Cc2cccs2)cc1)c1ccc(N=Cc2cccs2)cc1`, the survivor count [4] was 6 of 6.
In the case of `CC(Cc1ccccc1)N(C)C(=O)c1ccc[n+](C)c1` (stereo not drawn), the survivor count (dose: 200.0 mg/kg/injection, schedule: Q01DX005 (ip), vehicle: saline) is reported as 1 of 6.
`Cc1ccnc(NS(=O)(=O)c2ccc(Nc3c4ccccc4nc4cc(Cl)ccc34)cc2)n1` was tested, and the T/C (dose: 400.0 mg/kg/injection, schedule: Q04DX003 (ip), vehicle: Klucel (hydroxypropylcellulose) (HPC)) was 131 % of control.
In the case of `COc1ccccc1/C=C(\C(=O)O)c1ccccc1`, the survivor count [2] is reported as 6 of 6.
`CCCCCCCCS(=O)(=O)NC` was tested, and the survivor count [1] was 6 of 6, the survivor count [4] was 6 of 6 and the survivor count (dose: 200.0 mg/kg/injection, schedule: Q01DX009 (ip), vehicle: saline) was 6 of 6. For the same compound, the survivor count (dose: 400.0 mg/kg/injection, schedule: Q01DX009 (ip), vehicle: saline) was 6 of 6.
`CC(=O)N[C@@H](Cc1ccc(N(CCCl)CCCl)cc1)C(=O)ON1C(=O)CCC1=O` was tested, and the T/C (dose: 1.45 mg/kg/injection, schedule: Q01DX009 (ip), vehicle: saline) was 127 % of control, the T/C (dose: 1.45 mg/kg/injection, schedule: Q03HX008 (ip), vehicle: saline) was 135 % of control and the T/C (dose: 2.9 mg/kg/injection, schedule: Q01DX009 (ip), vehicle: saline) was 140 % of control. The T/C (dose: 2.9 mg/kg/injection, schedule: Q03HX008 (ip), vehicle: saline) was 145 % of control and the survivor count (dose: 46.4 mg/kg/injection, schedule: Q03HX008 (ip), vehicle: saline) was 7 of 10.
For `[CH3][Sn]([Cl])([Cl])[c]1ccccc1`, the survivor count (dose: 12.5 mg/kg/injection, schedule: Q04DX003 (ip), vehicle: saline) was 3 of 6, the survivor count (dose: 25.0 mg/kg/injection, schedule: Q04DX003 (ip), vehicle: saline) was 0 of 6 and the survivor count (dose: 100.0 mg/kg/injection, schedule: Q04DX003 (ip), vehicle: saline with Tween-80) was 0 of 6. The survivor count [5] was 0 of 6 and the survivor count [6] was 0 of 6.
With `CC(CN(C)C)C(=O)/C=C/c1ccc(F)c(F)c1` (stereo not drawn) the T/C [7] was 138 % of control, the survivor count [7] was 0 of 5 and the survivor count (dose: 480.0 mg/kg/injection, schedule: Q01DX005 (ip), vehicle: saline) was 0 of 5.
With `O=C(Nc1ccc(CC2=NCCCN2)cc1)c1ccc(C(=O)Nc2ccc(CC3=NCCCN3)cc2)cc1` the survivor count (dose: 3.13 mg/kg/injection, schedule: Q01DX005 (ip), vehicle: saline with Tween-80) was 0 of 6, the survivor count (dose: 6.25 mg/kg/injection, schedule: Q01DX005 (ip), vehicle: saline with Tween-80) was 0 of 6 and the survivor count (dose: 12.5 mg/kg/injection, schedule: Q01DX005 (ip), vehicle: saline with Tween-80) was 0 of 6. For the same compound, the survivor count [8] was 0 of 6, the survivor count [9] was 0 of 6 and the survivor count [10] was 0 of 6. For the same compound, the survivor count [11] was 0 of 6.
`N#C/C(=N\Nc1ccccc1)C(N)=S` was tested, and the survivor count (dose: 100.0 mg/kg/injection, schedule: Q01DX009 (ip), vehicle: other) was 0 of 6 and the survivor count (dose: 200.0 mg/kg/injection, schedule: Q01DX009 (ip), vehicle: other) was 1 of 6.
With `O=S(=O)(O)SCCNCCc1ccccn1` the survivor count (dose: 200.0 mg/kg/injection, schedule: Q01DX005 (ip), vehicle: water) was 0 of 6.
In the case of `S=C1N(c2ccc(Cl)cc2)C2=C(N=Nc3ccccc3)C(=Nc3ccccc3S2)N1c1ccccn1`, the survivor count [11] is reported as 0 of 6.
In the case of `O=C(OC1(c2nccc3ccccc23)CCCCC1)c1ccccc1`, the survivor count (dose: 12.5 mg/kg/injection, schedule: Q01DX009 (ip), vehicle: Klucel (hydroxypropylcellulose) (HPC)) is reported as 6 of 6.
For `COC1(OC)CCN2OC(CO)CC21` (stereo not drawn), the survivor count [5] was 6 of 6 and the survivor count [6] was 0 of 6.
`O=C1C2=C(Nc3cc([N+](=O)[O-])ccc3N2)OC1c1ccccc1O` (stereo not drawn) was tested, and the survivor count [3] was 6 of 6.
In the case of `COc1ccc(N=NNc2ccc(OC)cc2)cc1`, the T/C (dose: 25.0 mg/kg/injection, schedule: Q01DX009 (ip), vehicle: saline with Tween-80) is reported as 127 % of control.
`C/C(=N/NC(=S)N1CCCCCC1)c1ncccn1` was tested, and the T/C [8] was 125 % of control, the survivor count [9] was 5 of 6 and the survivor count [10] was 1 of 6. For the same compound, the survivor count [11] was 0 of 6.
For `COC1=CC2C3Cc4c(-c5cc(OC)c(O)c6c5CC5C7C=C(OC)C(=O)CC67CCN5C)cc(OC)c(O)c4C2(CCN3C)CC1=O` (stereo not drawn), the survivor count (dose: 200.0 mg/kg/injection, schedule: Q01DX009 (ip), vehicle: saline with Tween-80) was 1 of 6.
In the case of `NC(Cc1ccc(O)cc1)C(=O)N/N=C/c1ccccc1Cl` (stereo not drawn), the survivor count [2] is reported as 5 of 5.
For `O=C(C1CO1)C(Cl)(Cl)Cl` (stereo not drawn), the T/C (dose: 50.0 mg/kg/injection, schedule: Q01DX001 (ip), vehicle: saline) was 131 % of control, the survivor count (dose: 100.0 mg/kg/injection, schedule: Q01DX001 (ip), vehicle: saline) was 3 of 6 and the survivor count (dose: 200.0 mg/kg/injection, schedule: Q01DX001 (ip), vehicle: saline) was 0 of 6. For the same compound, the survivor count (dose: 400.0 mg/kg/injection, schedule: Q01DX001 (ip), vehicle: saline) was 0 of 6.
For `Nc1ccc(N(CCCl)CCN(CCCl)c2ccc(N)cc2)cc1`, the survivor count (dose: 1.8 mg/kg/injection, schedule: Q01DX009 (ip), vehicle: saline sonified) was 5 of 6, the survivor count (dose: 10.0 mg/kg/injection, schedule: Q04DX003 (ip), vehicle: saline with Tween-80) was 5 of 6 and the survivor count (dose: 20.0 mg/kg/injection, schedule: Q04DX003 (ip), vehicle: saline with Tween-80) was 4 of 6.
